These are yes or no findings as the source states them, for the method shown. In cells and extracts the contact can be indirect. Some results given as binding are weak or reduced against the parent protein; the word gives no strength. For some of these results: Tags and fused reporters may be left off the sequences shown.
How the values were obtained:
[1] = biological target: HNRNPC, endogenous (human (endogenous in 293T or PLC-8024)) (UniProt P07910); assay: co-IP; endogenous proteins; 293T and PLC-8024 cells named for the figure; detected by WB
[2] = biological target: HA-HNRNPC, ectopically overexpressed in 293T and PLC-8024 cells (human) (UniProt P07910); assay: co-IP; ectopically overexpressed proteins in 293T and PLC-8024 cells (co-transfected plasmids); anti-Flag or anti-HA agarose, WB with anti-Flag and anti-HA
[3] = biological target: HA-HNRNPC, ectopically overexpressed in Hepa1-6 and 3T3 cells (UniProt P07910); assay: co-IP; ectopically overexpressed tagged proteins in mouse cell lines Hepa1-6 and 3T3
[4] = biological target: HNRNPC of the GST-pulldown assay (UniProt P07910); assay: pull-down; GST-pulldown assay to test whether the interaction is direct (Fig. S11)

Chains of the proteins cited; added tags and fusions are not shown.
UniProt P07910: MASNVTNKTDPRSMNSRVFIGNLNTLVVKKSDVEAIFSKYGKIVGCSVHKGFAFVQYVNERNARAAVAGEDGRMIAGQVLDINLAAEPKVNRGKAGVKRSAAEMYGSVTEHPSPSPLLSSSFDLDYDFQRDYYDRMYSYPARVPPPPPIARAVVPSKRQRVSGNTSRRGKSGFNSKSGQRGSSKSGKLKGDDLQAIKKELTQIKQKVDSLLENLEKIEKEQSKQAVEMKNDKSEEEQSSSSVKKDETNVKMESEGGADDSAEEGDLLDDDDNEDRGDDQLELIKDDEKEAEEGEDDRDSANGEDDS

B1: Ubiquitin-specific protease 39 (USP39), endogenous (protein, UniProt Q53GS9 1-565)
chain: MSGRSKRESRGSTRGKRESESRGSSGRVKRERDREREPEAASSRGSPVRVKREFEPASAREAPASVVPFVRVKREREVDEDSEPEREVRAKNGRVDSEDRRSRHCPYLDTINRSVLDFDFEKLCSISLSHINAYACLVCGKYFQGRGLKSHAYIHSVQFSHHVFLNLHTLKFYCLPDNYEIIDSSLEDITYVLKPTFTKQQIANLDKQAKLSRAYDGTTYLPGIVGLNNIKANDYANAVLQALSNVPPLRNYFLEEDNYKNIKRPPGDIMFLLVQRFGELMRKLWNPRNFKAHVSPHEMLQAVVLCSKKTFQITKQGDGVDFLSWFLNALHSALGGTKKKKKTIVTDVFQGSMRIFTKKLPHPDLPAEEKEQLLHNDEYQETMVESTFMYLTLDLPTAPLYKDEKEQLIIPQVPLFNILAKFNGITEKEYKTYKENFLKRFQLTKLPPYLIFCIKRFTKNNFFVEKNPTIVNFPITNVDLREYLSEEVQAVHKNTTYDLIANIVHDGKPSEGSYRIHVLHHGTGKWYELQDLQVTDILPQMITLSEAYIQIWKRRDNDETNQQGA
binding [1]: binds

B2: Flag-USP39, ectopically overexpressed in 293T and PLC-8024 cells (protein, UniProt Q53GS9 1-565)
chain: MSGRSKRESRGSTRGKRESESRGSSGRVKRERDREREPEAASSRGSPVRVKREFEPASAREAPASVVPFVRVKREREVDEDSEPEREVRAKNGRVDSEDRRSRHCPYLDTINRSVLDFDFEKLCSISLSHINAYACLVCGKYFQGRGLKSHAYIHSVQFSHHVFLNLHTLKFYCLPDNYEIIDSSLEDITYVLKPTFTKQQIANLDKQAKLSRAYDGTTYLPGIVGLNNIKANDYANAVLQALSNVPPLRNYFLEEDNYKNIKRPPGDIMFLLVQRFGELMRKLWNPRNFKAHVSPHEMLQAVVLCSKKTFQITKQGDGVDFLSWFLNALHSALGGTKKKKKTIVTDVFQGSMRIFTKKLPHPDLPAEEKEQLLHNDEYQETMVESTFMYLTLDLPTAPLYKDEKEQLIIPQVPLFNILAKFNGITEKEYKTYKENFLKRFQLTKLPPYLIFCIKRFTKNNFFVEKNPTIVNFPITNVDLREYLSEEVQAVHKNTTYDLIANIVHDGKPSEGSYRIHVLHHGTGKWYELQDLQVTDILPQMITLSEAYIQIWKRRDNDETNQQGA
binding [2]: binds

B3: Flag-USP39, ectopically overexpressed in Hepa1-6 and 3T3 cells (protein, UniProt Q53GS9 1-565)
chain: MSGRSKRESRGSTRGKRESESRGSSGRVKRERDREREPEAASSRGSPVRVKREFEPASAREAPASVVPFVRVKREREVDEDSEPEREVRAKNGRVDSEDRRSRHCPYLDTINRSVLDFDFEKLCSISLSHINAYACLVCGKYFQGRGLKSHAYIHSVQFSHHVFLNLHTLKFYCLPDNYEIIDSSLEDITYVLKPTFTKQQIANLDKQAKLSRAYDGTTYLPGIVGLNNIKANDYANAVLQALSNVPPLRNYFLEEDNYKNIKRPPGDIMFLLVQRFGELMRKLWNPRNFKAHVSPHEMLQAVVLCSKKTFQITKQGDGVDFLSWFLNALHSALGGTKKKKKTIVTDVFQGSMRIFTKKLPHPDLPAEEKEQLLHNDEYQETMVESTFMYLTLDLPTAPLYKDEKEQLIIPQVPLFNILAKFNGITEKEYKTYKENFLKRFQLTKLPPYLIFCIKRFTKNNFFVEKNPTIVNFPITNVDLREYLSEEVQAVHKNTTYDLIANIVHDGKPSEGSYRIHVLHHGTGKWYELQDLQVTDILPQMITLSEAYIQIWKRRDNDETNQQGA
binding [3]: binds

B4: USP39 of the GST-pulldown assay (protein, UniProt Q53GS9 1-565)
chain: MSGRSKRESRGSTRGKRESESRGSSGRVKRERDREREPEAASSRGSPVRVKREFEPASAREAPASVVPFVRVKREREVDEDSEPEREVRAKNGRVDSEDRRSRHCPYLDTINRSVLDFDFEKLCSISLSHINAYACLVCGKYFQGRGLKSHAYIHSVQFSHHVFLNLHTLKFYCLPDNYEIIDSSLEDITYVLKPTFTKQQIANLDKQAKLSRAYDGTTYLPGIVGLNNIKANDYANAVLQALSNVPPLRNYFLEEDNYKNIKRPPGDIMFLLVQRFGELMRKLWNPRNFKAHVSPHEMLQAVVLCSKKTFQITKQGDGVDFLSWFLNALHSALGGTKKKKKTIVTDVFQGSMRIFTKKLPHPDLPAEEKEQLLHNDEYQETMVESTFMYLTLDLPTAPLYKDEKEQLIIPQVPLFNILAKFNGITEKEYKTYKENFLKRFQLTKLPPYLIFCIKRFTKNNFFVEKNPTIVNFPITNVDLREYLSEEVQAVHKNTTYDLIANIVHDGKPSEGSYRIHVLHHGTGKWYELQDLQVTDILPQMITLSEAYIQIWKRRDNDETNQQGA
binding [4]: binds

From article PMC10567755
